Data source: PubChem BioAssay AID1224828 (NIAID, 2016)
Assay: 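Knock-downs that increase or decrease LPS-induced p65 nuclear translocation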 (primary screen). Cells: mouse RAW264.7 G9 macrophage reporter cells (GFP-p65, Tnf promoter-mCherry). Reagent: siRNA pool against mouse genes, 100 nM. Duration: 2 days siRNA transfection, then 40 min LPS before fixation. Conditions: LPS (Salmonella minnesota R595) at 10 ng/ml. Detection: 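Imaged p65 nuclear translocation ratio, normalised to the plate median, converted to robust z-scores and averaged across two replicates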. Reading the numbers: p65 translocation robust z-score: higher = more nuclear NF-kappaB p65 after LPS than the plate median; nuclear/cytoplasmic p65 ratio: higher = more nuclear NF-kappaB p65. Call rule: 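Called active when z exceeds 3.3 or falls under -1.56 (median of Tlr4 controls), giving activity score of at least 50; no calls for control wells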. Calls: active = hit (p65 shift raised or lowered); inactive = no clear change.
In all, the deposit lists about 17,000 reagents; this is a part drawn at random. 762 of all reagents (4.5%) were called active. 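Active calls include both raised and lowered p65 entry, mostly lowered; wells with fewer than 50 cells lack a z-score.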 Raw values are not corrected between plates.

gene | p65 translocation robust z-score | nuclear/cytoplasmic p65 ratio, rep 1 | nuclear/cytoplasmic p65 ratio, rep 2 | low cell count flag | activity call
Dnaaf11 (GeneID 54562) | -0.32 | 1.67 | 1.5 | enough cells to score | inactive
Eif3h (GeneID 68135) | -0.22 | 1.52 | 1.27 | enough cells to score | inactive
Zfp157 (GeneID 72154) | 0.12 | 1.4 | 1.5 | enough cells to score | inactive
Tmem11 (GeneID 216821) | -0.67 | 1.38 | 1.51 | enough cells to score | inactive
Lgr4 (GeneID 107515) | -0.37 | 1.43 | 1.56 | enough cells to score | inactive
C730034F03Rik (GeneID 105246016) | 2.83 | 2.01 | 2.25 | enough cells to score | inactive
Espn (GeneID 56226) | -0.64 | 1.48 | 1.4 | enough cells to score | inactive
3830403N18Rik (GeneID 70691) | – | 1.15 | 1.18 | fewer than 50 cells per well; well left out of scoring | inactive
Ntmt1 (GeneID 66617) | -0.62 | 1.33 | 1.38 | enough cells to score | inactive
Prdx2 (GeneID 21672) | -0.48 | 1.37 | 1.4 | enough cells to score | inactive
Psmb10 (GeneID 19171) | 0.22 | 1.53 | 1.44 | enough cells to score | inactive
Or51i2 (GeneID 259075) | -0.48 | 1.23 | 1.34 | enough cells to score | inactive
Mgat4d (GeneID 67555) | – | 1.47 | 1.59 | fewer than 50 cells per well; well left out of scoring | inactive
Gaa (GeneID 14387) | 0.77 | 1.49 | 1.51 | enough cells to score | inactive
Dnaja2 (GeneID 56445) | – | 1.49 | 1.34 | fewer than 50 cells per well; well left out of scoring | inactive
Cd68 (GeneID 12514) | -0.4 | 1.39 | 1.34 | enough cells to score | inactive

Entries above whose target name starts with C or c (2):
gene | p65 translocation robust z-score | nuclear/cytoplasmic p65 ratio, rep 1 | nuclear/cytoplasmic p65 ratio, rep 2 | low cell count flag | activity call
C730034F03Rik (GeneID 105246016) | 2.83 | 2.01 | 2.25 | enough cells to score | inactive
Cd68 (GeneID 12514) | -0.4 | 1.39 | 1.34 | enough cells to score | inactive

Additional results follow:
gene | p65 translocation robust z-score | nuclear/cytoplasmic p65 ratio, rep 1 | nuclear/cytoplasmic p65 ratio, rep 2 | low cell count flag | activity call
Zfp781a (GeneID 211135) | -0.06 | 1.57 | 1.77 | enough cells to score | inactive
Gpa33 (GeneID 59290) | 1.71 | 1.86 | 1.83 | enough cells to score | inactive
Arsa (GeneID 11883) | 0.3 | 1.71 | 1.62 | enough cells to score | inactive
Phldb1 (GeneID 102693) | -0.54 | 1.49 | 1.47 | enough cells to score | inactive
Cobl (GeneID 12808) | -0.99 | 1.35 | 1.73 | enough cells to score | inactive
Iqch (GeneID 78250) | -0.34 | 1.74 | 1.34 | enough cells to score | inactive
Gpkow (GeneID 209416) | -1.41 | 1.22 | 1.54 | enough cells to score | inactive
Gprc5b (GeneID 64297) | 0.45 | 1.51 | 1.71 | enough cells to score | inactive
